Results deposited as PubChem BioAssay AID1159596 (NIAID, 2016)
The whole screen tested 756 reagents; below is a random part of them. 143 of them (19%) were called active. 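Active means the reporter moved past about ±1.5 in either direction; scores are per single siRNA, not per gene; peptidoglycan dose not given.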 A number with no mark means an inactive call. Reagents against one gene are numbered here. Reagent sequences are not shown. Not stated in the record: the amount of reagent.

Assay: 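Genes whose silencing alters the TNF reporter response of macrophage-like cells to peptidoglycan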 (primary screen)
Cells: human THP1 B5 monocytic reporter cells made macrophage-like with PMA
Reagent: single siRNA against human genes
Time to read-out: assayed 48 to 72 hours after siRNA transfection; peptidoglycan stimulation lasted 4 hours
Conditions: Staphylococcus aureus peptidoglycan for 4 hours; dose not given
Detection: 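Mean over replicate screens of a robust z per siRNA from the dual luciferase TNF promoter reporter after 4 h peptidoglycan, median/MAD normalised, relative to negative controls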
Scale: TNF reporter z-score: higher = stronger TNF promoter reporter response to peptidoglycan
Rule for the call: In these data the active calls have TNF reporter z-score, replicate mean at about -1.5 or lower, or at about 1.5 or higher
Calls: active = reporter shifted beyond cut (either direction); inactive = reporter near control level

gene knocked down,reagent no.,"TNF reporter z-score, replicate mean"
MAPK14,1,-1.32
MAPK14,2,-1.9 (active)
MAPK14,3,-0.906
MAPK14,4,-2.24 (active)
MAPK14,5,-1.16
MAPK14,6,-1.96 (active)
MAPK8,1,0.106
MAPK8,2,-0.479
MAPK8,3,0.409
MAPK8,4,0.211
MAPK8,5,0.0679
MAPK8,6,-0.2
PIK3R3,1,-0.142
PIK3R3,2,-0.442
PIK3R3,3,-0.496
PIK3R3,4,-2.01 (active)
PIK3R3,5,-0.466
PIK3R3,6,-3.14 (active)
MYD88,1,-4.18 (active)
MYD88,2,-1.84 (active)
MYD88,3,-3.57 (active)
MYD88,4,-1.02
MYD88,5,1.82 (active)
MYD88,6,-1.32
REL,1,0.256
REL,2,-0.494
REL,3,-0.174
REL,4,-0.526
REL,5,-0.45
REL,6,-0.336
TLR4,1,0.816
TLR4,2,-0.292
TLR4,3,-0.393
TLR4,4,0.574
TLR4,5,-0.327
TLR4,6,-1.59 (active)
TAB1,1,-1.18
TAB1,2,-0.538
TAB1,3,0.00499
TAB1,4,-1.51 (active)
TAB1,5,-0.916
TAB1,6,-1.27
FADD,1,0.645
FADD,2,0.201
FADD,3,1.11
FADD,4,-1.19
FADD,5,-0.0629
FADD,6,-0.726
TLR8,1,-0.204
TLR8,2,1.48
TLR8,3,-0.237
TLR8,4,-1.76 (active)
TLR8,5,0.026
TLR8,6,0.134

Reformatted: results already given
MAPK8 #2
- TNF reporter z-score, replicate mean: -0.479

MAPK8 #3
- TNF reporter z-score, replicate mean: 0.409

MAPK8 #4
- TNF reporter z-score, replicate mean: 0.211

MAPK8 #5
- TNF reporter z-score, replicate mean: 0.0679

MAPK8 #6
- TNF reporter z-score, replicate mean: -0.2

PIK3R3 #1
- TNF reporter z-score, replicate mean: -0.142

PIK3R3 #2
- TNF reporter z-score, replicate mean: -0.442

PIK3R3 #3
- TNF reporter z-score, replicate mean: -0.496

PIK3R3 #4
- TNF reporter z-score, replicate mean: -2.01 (active)

PIK3R3 #5
- TNF reporter z-score, replicate mean: -0.466

PIK3R3 #6
- TNF reporter z-score, replicate mean: -3.14 (active)

MYD88 #1
- TNF reporter z-score, replicate mean: -4.18 (active)

MYD88 #2
- TNF reporter z-score, replicate mean: -1.84 (active)

More results follow:
gene knocked down,reagent no.,"TNF reporter z-score, replicate mean"
LY86,1,-0.376
LY86,2,-0.71
LY86,3,0.0326
LY86,4,-2.01 (active)
LY86,5,-0.0889
LY86,6,0.0606
TLR3,1,0.272
TLR3,2,-0.557
TLR3,3,-0.567
TLR3,4,-1.53 (active)
TLR3,5,0.0386
TLR3,6,0.217
RELA,1,-1.34
RELA,2,-1.11
RELA,3,-1.36
RELA,4,-0.824
RELA,5,-0.82
RELA,6,-3.42 (active)
IRAK2,1,-0.633
IRAK2,2,1.09
IRAK2,3,0.549
IRAK2,4,0.0419
IRAK2,5,-2.45 (active)
IRAK2,6,0.956
IL12A,1,0.0108
IL12A,2,-0.542
IL12A,3,0.0278
IL12A,4,0.224
IL12A,5,-1.38
IL12A,6,-0.516
CXCL11,1,-1.95 (active)
CXCL11,2,0.0069
CXCL11,3,-0.112
CXCL11,4,-0.297
CXCL11,5,-0.524
CXCL11,6,-0.648
BTK,1,-0.177
BTK,2,-1.13
BTK,3,-1.27
BTK,4,-1.07
BTK,5,0.96
BTK,6,-0.436
STAT1,1,-0.312
STAT1,2,0.217
STAT1,3,-2.09 (active)
STAT1,4,-0.607
STAT1,5,1.06
STAT1,6,-1.89 (active)
TOLLIP,1,-1.29
TOLLIP,2,-0.172
TOLLIP,3,0.0437
TOLLIP,4,-5.43 (active)
TOLLIP,5,-0.418
TOLLIP,6,-1.18
CASP8,1,-0.107
CASP8,2,-0.164
CASP8,3,0.483
CASP8,4,-0.343
CASP8,5,0.54
CASP8,6,-0.593
ARF6,1,0.211
ARF6,2,-0.942
ARF6,3,0.503
ARF6,4,-0.811
ARF6,5,-0.229
ARF6,6,0.281
MAP3K7,1,-2.18 (active)
MAP3K7,2,-3.07 (active)
MAP3K7,3,-4.16 (active)
MAP3K7,4,-2.27 (active)
MAP3K7,5,-3.65 (active)
MAP3K7,6,-3.08 (active)
MAP3K8,1,-2.01 (active)
MAP3K8,2,-2.5 (active)
MAP3K8,3,-1.39
MAP3K8,4,-1.45
MAP3K8,5,-1.97 (active)
MAP3K8,6,-1.28
IRAK4,1,-0.599
IRAK4,2,-0.424
IRAK4,3,0.0348
IRAK4,4,-1.56 (active)
IRAK4,5,-0.266
IRAK4,6,0.0611
JUN,1,-3.23 (active)
JUN,2,-2.1 (active)
JUN,3,-0.525
JUN,4,-1.45
JUN,5,-0.669
JUN,6,0.735
